Experimental data published in US20240181000A1, “LGG-DERIVED PEPTIDES AND METHODS OF USE THEREOF” (Ohio State Innovation Foundation, priority 2021, published 2024).
Not every detail of the peptide structures is certain; ends, links or a residue may be inferred. No end group written: not given here.

Columns and labels:
[1] = tested on: APEC; settings: LGG and 50 mg/mL of peptides in drinking water, 8 days dpi
Procedure: FIGS. 58A-58B show the APEC load after treatment 8 days dpi with LGG and 50 mg/mL of peptides in drinking water.

[2] = tested on: ST; assay type: in vivo, chickens
Procedure: Efficacy of peptides in chickens: To assess the efficacy of peptides against ST in chickens, one-day-old specific pathogen free (SPF) layer chickens from a Salmonella free flock at The Ohio State University were obtained and provided with feed and water ad libitum. Chickens (n=10/group) were treated with P1, P2, or P4 at 50 mg/kg body weight twice-daily doses. Peptides were dissolved in water to reach final concentration of 50 mg/kg and orally administered from day 1 to day 7. Early intestinal colonization is important for poultry health and thus is why peptide treatment was begun at day 1. Birds were challenged with 10^4 CFU of nalidixic acid resistant ST on day 3. At day 10 [7 days post infection (dpi)] chickens were euthanized, and the cecum, liver, and spleen were collected to determine the peptide's ability to reduce ST infection. The cecum was suspended in PBS, homogenized, ten-fold serially diluted, and plated on XLT4 agar plates supplemented with 50 μg/ml nalidixic acid and incubated for 24 h at 37° C. The liver and spleen were individually suspended in PBS and the undiluted homogenized suspension was plated directly and incubated for 24 h at 37° C. One milliliter of the undiluted homogenized liver and spleen was enriched in 9 ml of tetrathionate broth (TTB) for 24 h at 37° C. […] The body weights of chickens were measured on the day of necropsy (day 10). […]

[3] = tested on: S. typhimurium; experiment: P1 and P2 in drinking water, S. typhimurium infected chickens; assay type: in vivo; settings: 200 mg/L in drinking water, 7 dpi
Procedure: Both the P1 and P2 at 200 mg/L and 100 mg/L concentrations reduced S. typhimurium colonization by 0.78 (p<0.05) and 0.69 (p<0.05) log CFU/gm, respectively.

[4] = tested on: Biofilm embedded ST; experiment: MBEC Assay; assay type: cell-based, Salmonella enterica; settings: at MICs; untreated 6.46 ± 0.09
Procedure: Peptides effect against biofilm embedded Salmonella: To analyze the ability of the peptides (P1, P2, and P4) to retain their inhibitory characteristics against biofilm protected Salmonella, Innovotech's MBEC Assay® (Innovotech Inc., AB, Canada) was conducted as previously detailed. Initially, 150 μL of 5×10^7 CFU/mL adjusted ST or SE suspension in LB media was aliquoted into the wells of MBEC inoculator plates containing polystyrene pegs and incubated for 36 h on a rocker platform at 37° C. to allow the biofilm formation. After biofilm formation, the pegs were washed to remove loosely adherent planktonic bacteria and transferred to a new 96-well plate containing peptides at MICs, with relevant controls, in 200 μL 25% LB media. The diluted LB media was used because it allows for slow bacterial growth to promote biofilm formation due to limited nutrients. The plate was incubated for 18 h at 37° C. with rotation at 150 rpm. Sterile media and DMSO were used as controls. Following incubation, the MICs of peptides in challenge plate were recorded. The pegs were transferred to new 96-well plate containing PBS and sonicated for 30 minutes to disrupt the biofilm. The sonicated suspensions were then ten-fold serially diluted and plated on LB agar plates to enumerate the biofilm protected bacteria and determine the minimum biofilm eradication concentration (MBEC) of peptides. […]

[5] = tested on: ST membrane; experiment: Confocal microscopy (bacterial cytological profiling); assay type: cell-based, Salmonella enterica; settings: 5×MIC, 3 h
Procedure: Mode of action of peptides analyzed through confocal microscopy: To determine the mode of action of P1 and P2, bacterial cytological profiling was conducted using confocal microscopy as described in. […] Incubated bacteria cultures were then centrifuged and re-suspended in 100 μL sterile water. Following suspension, 1 μg/mL of FM4-64 (Invitrogen™ Molecular Probes™) and 5 μM Syto-9 (Invitrogen™ Molecular Probes™) stains were added and incubated for 45 mins […] with 150 rpm. After incubation, the samples were centrifuged, and bacteria was re-suspended in 10 μl sterile water. For microscopic analysis, 3 μL of bacterial suspension was added to glass slides with 1.2% agar and 20% LB media. Untreated ST bacterial culture was used as a control. Leica TCS SP6 confocal scanning microscope (Excitation/emission (nm); FM4-64 (515/640), SYTO-9 (485/498) was used at the Ohio State University's Molecular and Cellular Imaging Center (MCIC; mcic.osu.edu/microscopy).

[6] = tested on: commensal bacteria; experiment: Peptide activity against commensal bacteria; assay type: cell-based; settings: at MICs
Procedure: Peptide activity against commensal bacteria: Peptides 1, 2, and 4 were used to assess if they would inhibit commensal microbes. The commensal bacteria used along with their culture requirements are described in Table 25. Peptides at their MICs were added to 100 μL of known concentration of commensal bacteria and incubated under their required conditions. OD600 of cultures was measured to assess the effect of peptides on bacterial growth.

[7] = tested on: ST; experiment: Alanine scanning SAR, anti-Salmonella activity; assay type: cell-based, Salmonella enterica
Procedure: Relative Importance was calculated using formula: (percent growth in analogue-percent growth in original peptide)/(percent growth in DMSO-treated control-percent growth in original peptide)×100.
Structural-activity relationship (SAR) study: Structure activity relationship analysis was used to better determine the important amino acids required for Anti-Salmonella activity of P1 and P2. Alanine scanning libraries of P1 and P2 were synthesized from Genscript (Table 28; (www.genscript.com/alanine_scanning.html) and tested for inhibitory activity as described above. Relative importance [(percent growth in analogue-percent growth in original peptide)/(percent growth in DMSO-treated control-percent growth in original peptide)×100] was used to identify crucial amino acids of each amino acid residue of the peptide. Two independent experiments were conducted to ensure accuracy.

## NPSRQERR [Peptide P1]
[1]
  Reduction of APEC colonization in ceca: 1.57 Log CFU/gm
[2]; 50 mg/kg twice daily
  Reduction of percent of birds positive for ST in the liver: 30%
[2]; 50 mg/kg twice daily 7 days, day 10 (7 dpi)
  Reduction of ST colonization in the cecum: 2.2 logs
[3]
  Reduction of S. typhimurium colonization in ceca: 0.78 log CFU/gm
[4]
  Biofilm embedded ST: 0.00 ± 0.00 Log CFU/ml
[5]
  ST membrane in confocal microscopy (FM4-64 stain): little to no red stain present
[6]
  Growth of Bacteroides thetaiotaomicron: no inhibition
  Growth of E. coli Nissle 1917 and E. coli G58-1: inhibited
  Growth of Gram-positive commensal bacteria: No growth inhibition
[7]
  Relative importance of Proline in P1: 15%
  Relative importance of proline and remaining residues in P1: less than 20%
[7]; mean
  Relative importance of glutamic acid in P1: 50%
